Laboratory results: article PMC4476799, “Englerin A Agonizes the TRPC4/C5 Cation Channels to Inhibit Tumor Cell Line Proliferation” (PLoS ONE, 2015)
The source gives many values for each of these; only a part stands here.

Tested on: cancer cell lines from the cancer cell line encyclopedia (CCLE)
Assay: Cell line profiling (CLiP) proliferation experiment
Format: cell-based
Set-up: ACTIVITY_AREA: scale not given here; AMAX: unit not given here
Protocol: Compound profiling experiment and data analysis was performed as previously described. Data was imported and plotted using the Tibco Spotfire DXP application. Lines were categorized as sensitive, intermediate and refractory as follows: Amax<-40 & Inflection Point <2 ~ Sensitive, Amax>-20 & Inflection Point >10 ~ Refractory, all else were called Intermediate. Cancer Cell line HG-U133 Plus 2 data was processed and normalized as described. […] Five sets of refractory cell lines were generated from the pool of refractory cell lines trying to match the lineage composition of the set of sensitive cell lines. The limma package was used as previously described to perform the statistical comparison.

[1] = cell line HCC-15 (lung, squamous_cell_carcinoma)
[2] = cell line HCC-44 (lung, adenocarcinoma)
[3] = cell line HCC-1171 (lung, non_small_cell_carcinoma)
[4] = cell line HCT 116, large_intestine
[5] = cell line HCT-15, large_intestine
[6] = cell line HEL 92.1.7 (haematopoietic_and_lymphoid_tissue, acute_myeloid_leukaemia)
[7] = cell line HEL 92.1.7, haematopoietic_and_lymphoid_tissue
[8] = cell line HH, haematopoietic_and_lymphoid_tissue

With `CC(C)[C@@]12C[C@@H](O)[C@@](C)(O1)[C@@H]1CC[C@@H](C)[C@H]1[C@@H]2OC(=O)/C=C/c1ccccc1` [Englerin B] the RESPONSE (cell line HCC38) was “INTERMEDIATE”, the ACTIVITY_AREA (cell line HCC38, breast) was 10.97 and the AMAX (cell line HCC38, breast) was -45.93. For the same compound, the RESPONSE (cell line HCC38, breast) was “INTERMEDIATE”, the ACTIVITY_AREA (cell line HCC827) was 34.23 and the AMAX (cell line HCC827) was -77.46. The RESPONSE (cell line HCC827) was “INTERMEDIATE”, the ACTIVITY_AREA (cell line HCC827, lung) was 34.23 and the AMAX (cell line HCC827, lung) was -77.46. The RESPONSE (cell line HCC827, lung) was “INTERMEDIATE”, the ACTIVITY_AREA (cell line HCC1143) was 34.15 and the AMAX (cell line HCC1143) was -49.72. The RESPONSE (cell line HCC1143) was “INTERMEDIATE”, the ACTIVITY_AREA (cell line HCC1143, breast) was 34.15 and the AMAX (cell line HCC1143, breast) was -49.72. The RESPONSE (cell line HCC1143, breast) was “INTERMEDIATE”, the ACTIVITY_AREA (cell line HCC1187) was 52.26 and the AMAX (cell line HCC1187) was -61.7. For the same compound, the RESPONSE (cell line HCC1187) was “INTERMEDIATE”, the ACTIVITY_AREA (cell line HCC1187, breast) was 52.26 and the AMAX (cell line HCC1187, breast) was -61.7. The RESPONSE (cell line HCC1187, breast) was “INTERMEDIATE”, the ACTIVITY_AREA (cell line HCC1395) was 19.52 and the AMAX (cell line HCC1395) was -39.26. For the same compound, the RESPONSE (cell line HCC1395) was “INTERMEDIATE”, the ACTIVITY_AREA (cell line HCC1395, breast) was 19.52 and the AMAX (cell line HCC1395, breast) was -39.26. For the same compound, the RESPONSE (cell line HCC1395, breast) was “INTERMEDIATE”, the ACTIVITY_AREA (cell line HCC1419) was 74.8 and the AMAX (cell line HCC1419) was -53.34. For the same compound, the RESPONSE (cell line HCC1419) was “INTERMEDIATE”, the ACTIVITY_AREA (cell line HCC1419, breast) was 74.8 and the AMAX (cell line HCC1419, breast) was -53.34. The RESPONSE (cell line HCC1419, breast) was “INTERMEDIATE”, the ACTIVITY_AREA (cell line HCC1428) was 10.07 and the AMAX (cell line HCC1428) was -43.35. For the same compound, the RESPONSE (cell line HCC1428) was “INTERMEDIATE”, the ACTIVITY_AREA (cell line HCC1428, breast) was 10.07 and the AMAX (cell line HCC1428, breast) was -43.35. For the same compound, the RESPONSE (cell line HCC1428, breast) was “INTERMEDIATE”, the ACTIVITY_AREA (cell line HCC1500) was 18.34 and the AMAX (cell line HCC1500) was -35.2. The RESPONSE (cell line HCC1500) was “INTERMEDIATE”, the ACTIVITY_AREA (cell line HCC1500, breast) was 18.34 and the AMAX (cell line HCC1500, breast) was -35.2. For the same compound, the RESPONSE (cell line HCC1500, breast) was “INTERMEDIATE”, the ACTIVITY_AREA (cell line HCC1569) was 30.83 and the AMAX (cell line HCC1569) was -51.52. For the same compound, the RESPONSE (cell line HCC1569) was “INTERMEDIATE”, the ACTIVITY_AREA (cell line HCC1569, breast) was 30.83 and the AMAX (cell line HCC1569, breast) was -51.52. The RESPONSE (cell line HCC1569, breast) was “INTERMEDIATE”, the ACTIVITY_AREA (cell line HCC1806) was 25.73 and the AMAX (cell line HCC1806) was -40.41. The RESPONSE (cell line HCC1806) was “INTERMEDIATE”, the ACTIVITY_AREA (cell line HCC1806, breast) was 25.73 and the AMAX (cell line HCC1806, breast) was -40.41. The RESPONSE (cell line HCC1806, breast) was “INTERMEDIATE”, the ACTIVITY_AREA (cell line HCC1937) was 37.43 and the AMAX (cell line HCC1937) was -51.09. The RESPONSE (cell line HCC1937) was “INTERMEDIATE”, the ACTIVITY_AREA (cell line HCC1937, breast) was 37.43 and the AMAX (cell line HCC1937, breast) was -51.09. The RESPONSE (cell line HCC1937, breast) was “INTERMEDIATE”, the ACTIVITY_AREA (cell line HCC1954) was 52.62 and the AMAX (cell line HCC1954) was -68.91. For the same compound, the RESPONSE (cell line HCC1954) was “INTERMEDIATE”, the ACTIVITY_AREA (cell line HCC1954, breast) was 52.62 and the AMAX (cell line HCC1954, breast) was -68.91. For the same compound, the RESPONSE (cell line HCC1954, breast) was “INTERMEDIATE”, the ACTIVITY_AREA (cell line HCC2218) was 37.19 and the AMAX (cell line HCC2218) was -45.48. For the same compound, the RESPONSE (cell line HCC2218) was “INTERMEDIATE”, the ACTIVITY_AREA (cell line HCC2218, breast) was 37.19 and the AMAX (cell line HCC2218, breast) was -45.48. For the same compound, the RESPONSE (cell line HCC2218, breast) was “INTERMEDIATE”, the ACTIVITY_AREA [1] was 57.49 and the AMAX [1] was -70.57. The RESPONSE [1] was “INTERMEDIATE”, the ACTIVITY_AREA [2] was 54.42 and the AMAX [2] was -58.5. The RESPONSE [2] was “INTERMEDIATE”, the ACTIVITY_AREA (cell line HCC-44, lung) was 54.42 and the AMAX (cell line HCC-44, lung) was -58.5. For the same compound, the ACTIVITY_AREA (cell line HCC-95) was 14.61, the AMAX (cell line HCC-95) was -59.04 and the RESPONSE (cell line HCC-95) was “INTERMEDIATE”. For the same compound, the ACTIVITY_AREA (cell line HCC-95, lung) was 14.61, the AMAX (cell line HCC-95, lung) was -59.04 and the RESPONSE (cell line HCC-95, lung) was “INTERMEDIATE”. For the same compound, the ACTIVITY_AREA (cell line HCC-366) was 6.53, the AMAX (cell line HCC-366) was 14.96 and the RESPONSE (cell line HCC-366) was “REFRACTORY”. The ACTIVITY_AREA (cell line HCC-366, lung) was 6.53, the AMAX (cell line HCC-366, lung) was 14.96 and the ACTIVITY_AREA [3] was 53.16. For the same compound, the AMAX [3] was -52.03, the RESPONSE [3] was “INTERMEDIATE” and the ACTIVITY_AREA (cell line HCT 116) was 27.37. The AMAX (cell line HCT 116) was -29.85, the RESPONSE (cell line HCT 116) was “INTERMEDIATE” and the ACTIVITY_AREA [4] was 27.37. For the same compound, the AMAX [4] was -29.85, the RESPONSE [4] was “INTERMEDIATE” and the ACTIVITY_AREA (cell line HCT-15) was 18.03. The AMAX (cell line HCT-15) was -41.69, the RESPONSE (cell line HCT-15) was “INTERMEDIATE” and the ACTIVITY_AREA [5] was 18.03. For the same compound, the AMAX [5] was -41.69, the RESPONSE [5] was “INTERMEDIATE” and the ACTIVITY_AREA (cell line HEC-1-A) was 17.69. For the same compound, the AMAX (cell line HEC-1-A) was -45.32, the RESPONSE (cell line HEC-1-A) was “INTERMEDIATE” and the ACTIVITY_AREA (cell line HEC-1-A, endometrium) was 17.69. The AMAX (cell line HEC-1-A, endometrium) was -45.32, the RESPONSE (cell line HEC-1-A, endometrium) was “INTERMEDIATE” and the ACTIVITY_AREA (cell line HEC-6) was 19.97. For the same compound, the AMAX (cell line HEC-6) was -45.33, the RESPONSE (cell line HEC-6) was “INTERMEDIATE” and the ACTIVITY_AREA (cell line HEC-6, endometrium) was 19.97. For the same compound, the AMAX (cell line HEC-6, endometrium) was -45.33, the RESPONSE (cell line HEC-6, endometrium) was “INTERMEDIATE” and the ACTIVITY_AREA (cell line HEC-50B) was 36.05. The AMAX (cell line HEC-50B) was -44.91, the RESPONSE (cell line HEC-50B) was “INTERMEDIATE” and the ACTIVITY_AREA (cell line HEC-50B, endometrium) was 36.05. The AMAX (cell line HEC-50B, endometrium) was -44.91, the RESPONSE (cell line HEC-50B, endometrium) was “INTERMEDIATE” and the ACTIVITY_AREA (cell line HEC-59) was 78.46. For the same compound, the AMAX (cell line HEC-59) was -60.29, the RESPONSE (cell line HEC-59) was “INTERMEDIATE” and the ACTIVITY_AREA (cell line HEC-59, endometrium) was 78.46. For the same compound, the AMAX (cell line HEC-59, endometrium) was -60.29, the RESPONSE (cell line HEC-59, endometrium) was “INTERMEDIATE” and the ACTIVITY_AREA (cell line HEC-151) was 68.45. For the same compound, the AMAX (cell line HEC-151) was -69.63, the RESPONSE (cell line HEC-151) was “INTERMEDIATE” and the ACTIVITY_AREA (cell line HEC-151, endometrium) was 68.45. For the same compound, the AMAX (cell line HEC-151, endometrium) was -69.63, the RESPONSE (cell line HEC-151, endometrium) was “INTERMEDIATE” and the ACTIVITY_AREA (cell line HEC-251) was 28.47. For the same compound, the AMAX (cell line HEC-251) was -37.96, the RESPONSE (cell line HEC-251) was “INTERMEDIATE” and the ACTIVITY_AREA (cell line HEC-251, endometrium) was 28.47. For the same compound, the AMAX (cell line HEC-251, endometrium) was -37.96, the RESPONSE (cell line HEC-251, endometrium) was “INTERMEDIATE” and the ACTIVITY_AREA (cell line HEC-265) was 15.99. The AMAX (cell line HEC-265) was -55.28, the RESPONSE (cell line HEC-265) was “INTERMEDIATE” and the ACTIVITY_AREA (cell line HEC-265, endometrium) was 15.99. The AMAX (cell line HEC-265, endometrium) was -55.28, the RESPONSE (cell line HEC-265, endometrium) was “INTERMEDIATE” and the ACTIVITY_AREA [6] was 34.01. For the same compound, the AMAX [6] was -62.2, the RESPONSE [6] was “INTERMEDIATE” and the ACTIVITY_AREA [7] was 34.01. For the same compound, the AMAX [7] was -62.2, the RESPONSE [7] was “INTERMEDIATE” and the ACTIVITY_AREA (cell line HGC-27) was 76.82. For the same compound, the AMAX (cell line HGC-27) was -80.89, the RESPONSE (cell line HGC-27) was “INTERMEDIATE” and the ACTIVITY_AREA (cell line HGC-27, stomach) was 76.82. For the same compound, the AMAX (cell line HGC-27, stomach) was -80.89, the RESPONSE (cell line HGC-27, stomach) was “INTERMEDIATE” and the ACTIVITY_AREA (cell line HH) was 44.87. For the same compound, the AMAX (cell line HH) was -92.74, the RESPONSE (cell line HH) was “INTERMEDIATE” and the ACTIVITY_AREA [8] was 44.87. For the same compound, the AMAX [8] was -92.74, the RESPONSE [8] was “INTERMEDIATE” and the ACTIVITY_AREA (cell line HLC-1) was 32.85. For the same compound, the AMAX (cell line HLC-1) was -47.99.
